Results from PubChem BioAssay AID2685 (National Center for Advancing Translational Sciences (NCATS), 2010).
Some of the results follow. The main result of the screen is listed elsewhere. These columns were measured beside it and carry no call. Most of these compounds were active or inconclusive in the main read-out, so they are no random draw. Potencies come from curve fits of mixed quality, noted in brackets.

Test: qHTS Assay for Lipid Storage Modulators in Drosophila S3 Cells;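 for cell number change: cells counted by Cell Tracker Red CMTPX staining in the red channel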
Conditions: BODIPY lipid droplet fluorescence, 18-24 h; for cell number change: measured here: cell count max response, cells fed with added oleic acid
Method in brief: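 Drosophila S3 cells loaded with oleic acid (400 uM, as added) and compounds at several concentrations; lipid droplets imaged by 488-nm laser-scanning cytometry, 500–530 nm intensity and object ratio to cell channel. Percent activity normalized to 20 uM Triacsin C.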

[1] = measured here: cell number channel AC50, cells fed with added oleic acid
[2] = measured here: lipid fluorescence (Fed channel) AC50, cells fed with added oleic acid

Structure (SMILES)	AC50 [1]	cell number change [%]	AC50 [2]
CCN(C(=O)CSc1nnc(-c2ccncc2)n1C)C1CCS(=O)(=O)C1 (stereo not given)	4.11 µM [falling, single point]	–	–
NC(=O)c1ccc(SCC(=O)OCC(=O)NC2CCCCCCC2)c([N+](=O)[O-])c1	–	-11.7	0.259 µM [falling, full curve, poor fit]
COc1ccc(C(=O)Nc2ccncc2)cc1S(=O)(=O)N1CCOCC1	–	-5.83	23.1 µM [falling, single point]
CCC(C)(NC(=O)c1ccccc1)C(=O)O (stereo not given)	–	-23.7	0.651 µM [falling, full curve, poor fit]
CN(C)c1ccnc2sc(C(=O)c3ccccc3)c(N)c12	–	26.1	14.6 µM [rising, partial curve]
O=C(NCCS(=O)(=O)N1CCN(c2cccc(Cl)c2)CC1)c1ccco1	–	5.72	–
Cc1ccc(-n2c(Cc3cccn3C)nnc2SCC(=O)NCc2ccco2)cc1	5.8 µM [falling, single point]	-8.09	–
Cn1c(N=Nc2ccccc2)nc2ccccc21	18.4 µM [falling, single point]	-43.6	–
Clc1ccc(C(c2nnnn2C2CCCC2)N2CCSCC2)cc1 (stereo not given)	–	5.49	–
Cc1ccc(C(=O)Nc2nc3ccccc3s2)s1	–	16	0.0058 µM [falling, full curve]
N#Cc1ccc(CSc2ccccn2)c(Cl)c1	–	12.5	29.1 µM [falling, single point]
Cc1ccc(C)c(NC(=O)COc2coc(CN3CCc4ccccc43)cc2=O)c1	2.06 µM [rising, partial curve]	-1	–
Cc1cccc(NC(=O)c2ccc(COc3ccccc3[N+](=O)[O-])o2)n1	4.11 µM [rising, single point]	-5.67	–
COc1ccccc1-c1cc(C(=O)NC2CCN(C)CC2)c2ccc(Cl)c(C)c2n1	–	18	35.5 µM [rising, single point]
CCCn1c(SCC(=O)NCc2ccc(F)cc2)n[nH]c1=O	0.0651 µM [rising, full curve, poor fit]	23.8	0.0326 µM [rising, full curve]
CN(C)CCCC(C)(O)C(Cc1ccccc1)c1ccccc1 (stereo not given)	20.6 µM [rising, single point]	42.5	18.4 µM [rising, single point]
O=C(Nc1cccc2ccccc12)OCc1cncs1	–	16.3	–
COc1cc(C2C(C(C)=O)=C(O)C(=O)N2CCN2CCOCC2)ccc1O (stereo not given)	14.6 µM [falling, partial curve, poor fit]	-78.1	1.16 µM [falling, full curve]

Random excerpt: two compounds from above.
Structure (SMILES)	AC50 [1]	cell number change [%]	AC50 [2]
COc1ccc(C(=O)Nc2ccncc2)cc1S(=O)(=O)N1CCOCC1	–	-5.83	23.1 µM [falling, single point]
COc1cc(C2C(C(C)=O)=C(O)C(=O)N2CCN2CCOCC2)ccc1O (stereo not given)	14.6 µM [falling, partial curve, poor fit]	-78.1	1.16 µM [falling, full curve]
